Results deposited as PubChem BioAssay AID1259308 (NCATS, 2017)

Purpose: 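Candidate targets for better recombinant protein yield in mammalian cells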 (primary screen)
System: human HEK293 embryonic kidney cells stably expressing firefly luciferase (HEK-CMV-Luc2-Hygro)
Reagents: single siRNA against human genes, 0.8 pmol siRNA per well
Time to read-out: 72 h
Read-out: 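Reporter luminescence and viable-cell signal on separate replicate plates, given as percent of non-targeting control and median/MAD z-scores, plus per-cell luciferase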
Scale: total luciferase, z-score and total luciferase, % of control: higher = more reporter protein produced; luciferase per cell, z-score: higher = more reporter output per viable cell; viable cells, % of control: higher = more viable cells
Call rule: 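Active when the median/MAD z-score for overall luciferase is greater than 3; a gene was taken forward for validation with new siRNAs if at least two of its three siRNAs passed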
Meaning of the calls: active = raised luciferase; inactive = no rise
In all, the deposit lists about 59,000 reagents; this is an unselected part. Over the whole deposit, about 1,510 (2.6%) are marked active. 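Calls use total luciferase alone and ignore viability, so some active siRNAs may act by altering cell number.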 No sequences are given here.

| target gene | PubChem SID | total luciferase, z-score | total luciferase, % of control | luciferase per cell, z-score | viable cells, % of control | call |
| --- | --- | --- | --- | --- | --- | --- |
| PGLS | SID160736988 | -0.411 | 73.7 | 0.359 | 74.9 | inactive |
| PGLS | SID160736989 | -0.66 | 68.8 | -0.774 | 94.2 | inactive |
| PGLS | SID160736990 | 0.814 | 98.1 | 1.1 | 82 | inactive |
| C1orf35 | SID160748736 | -0.317 | 75.6 | -1.44 | 123 | inactive |
| C1orf35 | SID160748737 | -0.558 | 70.8 | -1.3 | 111 | inactive |
| C1orf35 | SID160748738 | 0.777 | 97.3 | -0.379 | 120 | inactive |
| CFI | SID160775548 | 0.508 | 92 | 0.0846 | 101 | inactive |
| CFI | SID160775549 | 2.9 | 140 | 2.41 | 82.7 | inactive |
| CFI | SID160775550 | 0.817 | 98.1 | 0.316 | 101 | inactive |
| SLC5A4 | SID160716845 | 0.259 | 87 | 0.0503 | 96 | inactive |
| SLC5A4 | SID160716846 | 0.388 | 89.6 | -0.2 | 106 | inactive |
| SLC5A4 | SID160716847 | 4.1 | 163 | 2.05 | 107 | active |
| CDK11A | SID160771991 | 1.15 | 105 | 1.28 | 83.7 | inactive |
| CDK11A | SID160771992 | -0.25 | 76.9 | -0.681 | 103 | inactive |
| CDK11A | SID160771993 | 3.38 | 149 | 2.74 | 81 | active |
| SLX4IP | SID160756795 | -2.08 | 40.5 | -1.98 | 76.2 | inactive |
| SLX4IP | SID160756796 | 0.582 | 93.5 | 0.657 | 87.8 | inactive |
| SLX4IP | SID160756797 | 0.00449 | 82 | 0.813 | 74 | inactive |
| NOM1 | SID160731728 | -0.822 | 65.5 | -0.374 | 80.8 | inactive |
| NOM1 | SID160747798 | -0.37 | 74.5 | 0.273 | 77.5 | inactive |
| NOM1 | SID160747799 | -0.297 | 76 | -0.555 | 98.3 | inactive |
| TAOK3 | SID160740655 | 1.01 | 102 | 0.474 | 101 | inactive |
| TAOK3 | SID160740656 | 0.948 | 101 | 0.623 | 95.5 | inactive |
| TAOK3 | SID160740657 | -0.461 | 72.7 | -0.537 | 93.6 | inactive |
| ARFGAP3 | SID160737917 | -0.541 | 71.1 | -0.658 | 94.5 | inactive |
| ARFGAP3 | SID160737918 | -1.7 | 48.1 | -1.23 | 74.3 | inactive |
| ARFGAP3 | SID160737919 | -0.226 | 77.4 | -0.508 | 98.9 | inactive |
| EOLA2 | SID160768746 | 0.692 | 95.7 | 0.531 | 92.9 | inactive |
| EOLA2 | SID160768747 | -0.878 | 64.4 | 0.894 | 56.9 | inactive |
| EOLA2 | SID160768748 | -1.82 | 45.7 | -0.786 | 62.8 | inactive |
| KCNC1 | SID160776133 | -0.663 | 68.7 | -0.931 | 98.1 | inactive |
| KCNC1 | SID160776134 | 0.303 | 87.9 | 0.0127 | 97.9 | inactive |
| KCNC1 | SID160776135 | 2.07 | 123 | 2 | 81.2 | inactive |
| WASF1 | SID160721172 | -2.48 | 32.5 | -1.49 | 53.8 | inactive |
| WASF1 | SID160721173 | -0.317 | 75.6 | -0.453 | 95.1 | inactive |
| WASF1 | SID160721175 | -0.899 | 64 | -1.27 | 99.8 | inactive |
| HNRNPCP2 | SID160726397 | 1.04 | 103 | 1.09 | 86.1 | inactive |
| HNRNPCP2 | SID160726398 | 3.08 | 143 | 3.35 | 66.1 | active |
| HNRNPCP2 | SID160728030 | 0.462 | 91.1 | 0.00703 | 102 | inactive |
| MCM6 | SID160777060 | -2.16 | 39 | -2.32 | 80.1 | inactive |
| MCM6 | SID160777061 | -0.402 | 73.9 | -0.929 | 105 | inactive |
| MCM6 | SID160777063 | -1.02 | 61.6 | -0.894 | 87.1 | inactive |
| SGCD | SID160716645 | -1.53 | 51.5 | -0.872 | 72.4 | inactive |
| SGCD | SID160716647 | -0.57 | 70.6 | -0.459 | 89 | inactive |
| SGCD | SID160716648 | -0.534 | 71.3 | 0.0131 | 79.4 | inactive |
| ALOX5 | SID160716636 | -0.315 | 75.6 | -0.193 | 88.9 | inactive |
| ALOX5 | SID160716646 | 0.973 | 101 | 0.674 | 94.7 | inactive |
| ALOX5 | SID160730878 | -0.0446 | 81 | 0.152 | 87 | inactive |
| STAG3L3 | SID160725477 | 2.77 | 137 | 1.07 | 115 | inactive |
| STAG3L3 | SID160725478 | 0.0231 | 82.3 | -0.483 | 104 | inactive |
| STAG3L3 | SID160725479 | -0.943 | 63.1 | -1.39 | 102 | inactive |
| CLASRP | SID160730006 | -2.86 | 25 | -4.79 | 98.7 | inactive |
| CLASRP | SID160730007 | 0.558 | 93 | 0.119 | 101 | inactive |
| CLASRP | SID160730008 | -1.47 | 52.7 | -0.922 | 75.1 | inactive |
| OR10G3 | SID160732872 | 0.983 | 101 | 1.24 | 81.8 | inactive |
| OR10G3 | SID160738071 | 0.761 | 97 | 0.645 | 91.5 | inactive |
| OR10G3 | SID160738072 | 2.36 | 129 | 1.7 | 92 | inactive |

Entries listed so far whose gene name begins with K or k:
| target gene | PubChem SID | total luciferase, z-score | total luciferase, % of control | luciferase per cell, z-score | viable cells, % of control | call |
| --- | --- | --- | --- | --- | --- | --- |
| KCNC1 | SID160776133 | -0.663 | 68.7 | -0.931 | 98.1 | inactive |
| KCNC1 | SID160776134 | 0.303 | 87.9 | 0.0127 | 97.9 | inactive |
| KCNC1 | SID160776135 | 2.07 | 123 | 2 | 81.2 | inactive |
